Patent US20100330604A1, “QUANTIFICATION OF CHANGES IN THE DEGREES OF ORDER OF CELLULAR AND VIRAL MEMBRANES AND APPLICATIONS TO DIAGNOSIS, TREATMENT AND DRUG SCREENING” (priority 2007, published 2010)

What was measured:
[1] = system: platelets; settings: after statin treatment, 4 patients; compared value 14.9+/-0.3; p=0.12, non significant
[2] = 6-week atorvastatin 40 mg, hyperlipidemic patients

## CC(C)c1c(C(=O)Nc2ccccc2)c(-c2ccccc2)c(-c2ccc(F)cc2)n1CC[C@@H](O)C[C@@H](O)CC(=O)O [atorvastatin]
[1]
  530/30 nm band path of the di-4-ANEPPDHQ spectrum: 16.1+/−0.3
[2]
  total cholesterol, LDL, and triglyceride plasma levels: normalized
